Data taken from US12419304B2, “Aryl sulfide comprising benzylamine, synthesis method and application thereof” (Shandong Kangqiao Bio-Technology Co., Ltd., priority 2019, dated 2025).
Some results were stated once for a whole list of compounds, not compound by compound.

System: Tetranychus cinnabarinus
Assay: Activity test of Tetranychus cinnabarinus (spray on inoculated bean seedlings, mortality after 72 hours)
Format: in vivo
Conditions: whole plant sprayed
Procedure: Activity Test of Tetranychus cinnabarinus
The compound under test was dissolved in acetone and diluted to desired concentration with 0.1% Tween 80 solution with acetone content not exceeding 5%.
One true leaf was removed from the bean seedlings having two true leaves. Tanyanychus cinarinus was inoculated and the cardinal number thereof investigated. The whole plant was sprayed with a handheld sprayer, and each treatment was repeated for 3 times. After treatment, the bean seedlings were cultured in a constant temperature room. 72 hours later, the number of live mites was investigated and the mortality rate was calculated. The number of Tetranychus cinnabarinus was 100-200 per inoculation. Mortality=(number of inoculated mites−number of live mites after treatment)[…]×100%.

| Structure (SMILES) | lethal rate against mites (25 ppm (25 mg/L)) | lethal rate against mites (100 ppm (100 mg/L)) |
| --- | --- | --- |
| [O-][S+](CC(F)(F)F)c1cc(NCc2ccc(F)cc2SCC(F)(F)F)c(F)cc1Cl (stereo not shown) [Compound 1283] | more than 90% | over 90% |
| Cc1cc(F)c(NCc2ccccc2Br)cc1SCC(F)(F)F [Compound 29] | – | over 90% |
| Cc1cc(F)c(NCc2ccccc2SCC(F)(F)F)cc1SCC(F)(F)F [Compound 1300] | more than 90% | over 90% |
| CCC(=O)c1ccccc1CNc1cc([S+]([O-])CC(F)(F)F)c(C)cc1F (stereo not shown) [Compound 44] | – | over 90% |
| C=COC(=O)c1ccccc1CNc1cc(SCC(F)(F)F)c(Cl)cc1F [Compound 1216] | – | over 90% |
| CCCOC(=O)c1ccccc1CNc1cc([S+]([O-])CC(F)(F)F)c(C)cc1F (stereo not shown) [Compound 58] | – | over 90% |
| [O-][S+](CC(F)(F)F)c1cc(NCc2ccccc2SCC(F)(F)F)c(F)cc1Cl (stereo not shown) [Compound 1265] | more than 90% | over 90% |
| Cc1cc(F)c(NCc2ccccc2F)cc1[S+]([O-])CC(F)(F)F (stereo not shown) [Compound 26] | – | over 90% |
| CC(=O)c1cc(F)ccc1CNc1cc([S+]([O-])CC(F)(F)F)c(C)cc1F (stereo not shown) [Compound 292] | – | over 90% |
| Cc1cc(F)ccc1CNc1cc([S+]([O-])CC(F)(F)F)c(C)cc1F (stereo not shown) [Compound 254] | – | over 90% |
| Cc1cc(C)c(SCC(F)(F)F)cc1NCc1ccccc1CO [Compound 153] | – | over 90% |
| Cc1cc(F)c(NCc2ccccc2SCC(F)(F)F)cc1[S+]([O-])CC(F)(F)F (stereo not shown) [Compound 1301] | more than 90% | over 90% |
| COC(=O)c1ccccc1CNc1cc([S+]([O-])CC(F)(F)F)c(Cl)cc1Cl (stereo not shown) [Compound 1044] | – | over 90% |
| CCOC(=O)c1cc(Cl)ccc1CNc1cc([S+]([O-])CC(F)(F)F)c(C)cc1C (stereo not shown) [Compound 650] | – | over 90% |
| CNC(=O)c1cc(F)ccc1CNc1cc([S+]([O-])CC(F)(F)F)c(C)cc1F (stereo not shown) [Compound 332] | – | over 90% |
| CCOC(=O)c1cc(Cl)ccc1CNc1cc(SCC(F)(F)F)c(C)cc1F [Compound 537] | – | over 90% |
| Cc1cc(F)c(NCc2ccc(F)cc2F)cc1[S+]([O-])CC(F)(F)F (stereo not shown) [Compound 276] | – | over 90% |
| COC(=O)c1cc(Br)ccc1CNc1cc(SCC(F)(F)F)c(C)cc1F [Compound 1117] | – | over 90% |
| Cc1cc(F)c(NCc2ccc(Cl)cc2F)cc1SCC(F)(F)F [Compound 507] | – | over 90% |
| Cc1cc(F)c(NCc2ccc(F)cc2C(=O)OCC(F)(F)F)cc1[S+]([O-])CC(F)(F)F (stereo not shown) [Compound 322] | – | over 90% |
| CCCSc1ccccc1CNc1cc(SCC(F)(F)F)c(C)cc1F [Compound 111] | – | over 90% |
| Cc1cc(F)c(NCc2ccc(F)cc2C(=O)OCC(F)(F)F)cc1SCC(F)(F)F [Compound 321] | – | over 90% |
| [O-][S+](CC(F)(F)F)c1cc(NCc2ccccc2SCC(F)F)c(F)cc1Cl (stereo not shown) [Compound 1271] | – | over 90% |
| [O-][S+](CC(F)(F)F)c1ccccc1CNc1cc(SCC(F)(F)F)c(Cl)cc1F (stereo not shown) [Compound 1274] | – | over 90% |
| Fc1cc(Cl)c(SCC(F)(F)F)cc1NCc1ccccc1SCC(F)(F)F [Compound 1264] | more than 90% | over 90% |
| Cc1cc(F)c(NCc2ccc(F)cc2Cl)cc1[S+]([O-])CC(F)(F)F (stereo not shown) [Compound 278] | – | over 90% |
| CCOC(=O)c1ccccc1CNc1cc([S+]([O-])CC(F)(F)F)c(C)cc1F (stereo not shown) [Compound 56] | more than 90% | over 90% |
| COc1cc(Cl)ccc1CNc1cc(SCC(F)(F)F)c(C)cc1F [Compound 577] | – | over 90% |
